# Results reported in the supplement of paper PMC9135407.
# Values joined by “and” are separate entries in the source; they are usually repeats but may differ in a detail not shown here. Equal values may be shown once. Where a name gives a salt, the structure may show the parent alone. ± gives the standard deviation of the averaged measurements. This is one part of the list. Plates or batches differ in their baseline, so values are only roughly comparable.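 Assay uses culture-activated primary human stellate myofibroblasts; lipid droplet recovery indicates inactivation. Measured: proportion of Hoechst-counted cells over a plate-specific Bodipy cutoff, duplicate wells, DMSO and nortriptyline as per-plate negative and positive controls. A hit scores, control-normalized, above the plate's top-tenth-percentile nortriptyline wells or ranks among its three best wells. Final well concentrations not reported.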
# System: primary human hepatic stellate cells (donor 1)
# Assay: percent Bodipy-positive cells; higher = more lipid droplet accumulation
# Settings: 48 h
# [1] = library stock concentration: 10 mM
# [2] = library stock concentration: 1 mM
# [3] = library stock concentration: 3.33 mM
# [4] = library stock concentration: 80 uM
# [5] = library stock concentration: 400 uM
# [6] = library stock concentration: 2 mM
structure (smiles),measurement,setting,value
CN(C)CCCN1c2ccccc2Sc2ccc(C(F)(F)F)cc21 [Triflupromazine hydrochloride],percent Bodipy-positive cells,,69.4 ± 7.9%
same,percent Bodipy-positive cells,library stock concentration: 5.1 mM,91.273 ± 0.044%
same,percent Bodipy-positive cells,[1],96% and 78.6%
COc1ccc([C@@H]2CC(=O)c3c(O)cc(O)cc3O2)cc1O [Hesperetin],percent Bodipy-positive cells,,28 ± 3.5%
same,percent Bodipy-positive cells,[2],11.16 ± 0.032%
same,percent Bodipy-positive cells,[3],8.31 ± 0.82%
same,percent Bodipy-positive cells,[1],18 ± 0.34%
CCCCOCCOCCOCc1cc2c(cc1CCC)OCO2,percent Bodipy-positive cells,[1],50.3 ± 5.6%
"O=c1cc(-c2ccccc2)oc2c(O)c(O)ccc12 [7,8-dihydroxyflavone]",percent Bodipy-positive cells,[1],40.7 ± 5.1%
"O=c1cc(-c2ccccc2)oc2c(O)c(O)ccc12 [7,8-Dihydroxyflavone hydrate]",percent Bodipy-positive cells,[1],28.7 ± 7.5%
CCN(CC)CCOC(=O)C1(C2CCCCC2)CCCCC1 [Bentyl],percent Bodipy-positive cells,[1],94.5 ± 2.6%
CCN(CC)CCOC(=O)C1(C2CCCCC2)CCCCC1 [Dicyclomine hydrochloride],percent Bodipy-positive cells,,69.2 ± 6.1%
same,percent Bodipy-positive cells,library stock concentration: 5.8 mM,26.7 ± 14%
CCCc1cc(C)[nH]c(=O)c1CNC(=O)c1cc(-c2ccc(N3CCN(C(C)C)CC3)nc2)cc2c1cnn2C(C)C,percent Bodipy-positive cells,[3],83 ± 4.5%
same,percent Bodipy-positive cells,[1],96.2 ± 0.73%
CC1(C)OC(=O)C(OCC2CC2)=C1c1ccc(S(C)(=O)=O)cc1,percent Bodipy-positive cells,[1],20.4 ± 7.4%
CC(N/C(=N\C#N)Nc1ccncc1)C(C)(C)C (stereo not drawn) [Pinacidil],percent Bodipy-positive cells,,19.5 ± 3.5%
same,percent Bodipy-positive cells,library stock concentration: 20.4 mM,22.7 ± 0.68%
CC(N/C(=N\C#N)Nc1ccncc1)C(C)(C)C (stereo not drawn) [Pinacidil monohydrate],percent Bodipy-positive cells,[1],11.6 ± 0.46%
CCCCCCCCCCCCCCCC(=O)OCC(O)C1OC(=O)C(O)=C1O [L-Ascorbyl 6-palmitate],percent Bodipy-positive cells,[3],9.1 ± 0.4%
same,percent Bodipy-positive cells,[1],33.2 ± 17%
NC(=O)c1ccc(N(C(N)=O)c2c(F)cccc2F)nc1-c1ccc(F)cc1F,percent Bodipy-positive cells,[4],21.9 ± 18%
same,percent Bodipy-positive cells,[5],12.9% and 16.3%
same,percent Bodipy-positive cells,[6],9.93% and 28.4%
same,percent Bodipy-positive cells,[3],12.7 ± 6.8%
same,percent Bodipy-positive cells,[1],12.6% and 13.1% and 25.3%
C[N+]1(C)CCC(OC(=O)C(c2ccccc2)c2ccccc2)CC1,percent Bodipy-positive cells,[1],11.2 ± 5.9%
C[N+]1(C)CCC(OC(=O)C(c2ccccc2)c2ccccc2)CC1 [4-DAMP methiodide],percent Bodipy-positive cells,[1],23.4 ± 9%
Cc1[nH]ccc2c1[nH]c1cc(=O)ccc12 [Harmol hydrochloride monohydrate],percent Bodipy-positive cells,,84.3 ± 14%
"O=Cc1c2[nH]c3ccccc3c2cc2[nH]c3ccccc3c12 [6-Formylindolo [3,2-B] carbazole]",percent Bodipy-positive cells,[2],25.8 ± 16%
CC(=O)Oc1ccccc1C(=O)Nc1ncc([N+](=O)[O-])s1,percent Bodipy-positive cells,[1],32.2 ± 4.5%
CC(=O)Oc1ccccc1C(=O)Nc1ncc([N+](=O)[O-])s1 [Nitazoxanide],percent Bodipy-positive cells,[3],15.7 ± 4.8%
same,percent Bodipy-positive cells,[1],40.8 ± 4.4%
C#CC(N)CCC(=O)O (stereo not drawn) [gamma-Acetylinic GABA],percent Bodipy-positive cells,[1],32.3 ± 2.9%
CCCCC/N=c1\ccn(Cc2ccccc2)c2ccccc12,percent Bodipy-positive cells,[1],43.6 ± 9.8%
CO[C@H]1C[C@H](O[C@H]2[C@H](C)O[C@@H](O[C@@H]3/C(C)=C/C[C@@H]4C[C@@H](C[C@]5(C=C[C@H](C)[C@@H](C6CCCCC6)O5)O4)OC(=O)[C@@H]4C=C(C)[C@@H](O)[C@H]5OC/C(=C\C=C\[C@@H]3C)[C@]54O)C[C@@H]2OC)O[C@@H](C)[C@@H]1O,percent Bodipy-positive cells,[1],97.36 ± 0.76%
COc1c(C)c(C(=O)c2ccc(N)c(C(=O)O)c2)n2ccccc12,percent Bodipy-positive cells,[3],15.2 ± 2.6%
same,percent Bodipy-positive cells,[1],18.7 ± 0.76%
CCCCCCCC/C=C\CCCCCC(=O)O [cis-7-Hexadecenoic Acid],percent Bodipy-positive cells,[2],12.1 ± 4.1%
CCCCCC(=O)/C=C/[C@H]1[C@H](O)CC(=O)[C@@H]1C/C=C\CCCC(=O)O [15-keto Prostaglandin E2],percent Bodipy-positive cells,[2],17.9 ± 6.5%
O=C(CCCN1CCC(O)(c2ccc(Cl)cc2)CC1)c1ccc(F)cc1 [Haloperidol],percent Bodipy-positive cells,[1],96.47 ± 0.93%
"OCCNCCCOc1cccc(Cl)c1Cl [2,3-DCPE (hydrochloride)]",percent Bodipy-positive cells,[2],12.2 ± 0.25%
O=C1c2c(O)cccc2Cc2cccc(O)c21 [Anthralin],percent Bodipy-positive cells,library stock concentration: 8.8 mM,4.48 ± 0.34%
same,percent Bodipy-positive cells,[1],27.6 ± 0.34%
COc1nccc(-c2c(-c3ccc(F)cc3)ncn2C2CCC(O)CC2)n1 (stereo not drawn),percent Bodipy-positive cells,[4],10.1 ± 0.8%
same,percent Bodipy-positive cells,[5],9.01 ± 0.26%
same,percent Bodipy-positive cells,[6],9.81 ± 0.71%
same,percent Bodipy-positive cells,[3],7.33 ± 0.27%
same,percent Bodipy-positive cells,[1],8.08% and 7.82%
CN1c2cc3c(cc2N=C(c2ccc(C(=O)O)cc2)c2ccccc21)C(C)(C)CCC3(C)C,percent Bodipy-positive cells,[1],12.8 ± 0.87%
"CCC=CCC=CCC=CCCCCCCCCCC(=O)O [11(Z),14(Z),17(Z)-Eicosatrienoic Acid]",percent Bodipy-positive cells,[2],9.03 ± 3.7%
CCc1cc2c(cc1CC)CC(NC[C@H](O)c1ccc(O)c3[nH]c(=O)ccc13)C2.O=C(O)C=CC(=O)O [Indacaterol Maleate],percent Bodipy-positive cells,[1],100%
O/N=C/c1ccc(-c2ccc(O)c(F)c2)c(Cl)c1O,percent Bodipy-positive cells,[1],6.35 ± 0.3%
CN(C)CCCn1cc(C2=C(c3c[nH]c4ccccc34)C(=O)NC2=O)c2ccccc21,percent Bodipy-positive cells,[1],70 ± 3.9%
CC[N+](C)(CC)CCOC(=O)C(O)(c1ccccc1)C1CCCCC1 (stereo not drawn),percent Bodipy-positive cells,[1],16.7 ± 11%
COc1ccc2c(c1)CCC1C2CCC2(C)C(NCCCCCCN3C(=O)C=CC3=O)CCC12 (stereo not drawn),percent Bodipy-positive cells,[2],8.43 ± 3.4%
same,percent Bodipy-positive cells,[1],65.8 ± 10%
COc1cc2c(Nc3ccc(NC(=O)c4ccccc4)cc3)ncnc2cc1OCCCN1CCOCC1,percent Bodipy-positive cells,[1],97.5 ± 1.7%
CC(C)C[C@H](NP(=O)(O)O[C@@H]1O[C@@H](C)[C@H](O)[C@@H](O)[C@H]1O)C(=O)N[C@@H](Cc1c[nH]c2ccccc12)C(=O)O [Phosphoramidon Disodium Salt],percent Bodipy-positive cells,[3],22.1 ± 2.5%
same,percent Bodipy-positive cells,[1],31.5 ± 8.1%
COc1cc(C(=O)OCCCN2CCCN(CCCOC(=O)c3cc(OC)c(OC)c(OC)c3)CC2)cc(OC)c1OC [Dilazep dihydrochloride],percent Bodipy-positive cells,,62.1 ± 9.8%
COC(=O)C1=C(C)NC(C)=C([N+](=O)[O-])C1c1ccccc1C(F)(F)F (stereo not drawn),percent Bodipy-positive cells,library stock concentration: 14 mM,22.7 ± 14%
COc1ccc(-c2ccc3c(N4CCOC[C@@H]4C)nc(N4CCOC[C@@H]4C)nc3n2)cc1CO,percent Bodipy-positive cells,[4],8.84 ± 7.2%
same,percent Bodipy-positive cells,[5],8.057 ± 0.048%
same,percent Bodipy-positive cells,[6],7.62 ± 0.4%
same,percent Bodipy-positive cells,[3],6.51 ± 4.2%
same,percent Bodipy-positive cells,[1],16.6% and 10.9%
CC(C)Oc1ccc(C(=O)c2ccc(NC3=NCCN3)cc2)cc1,percent Bodipy-positive cells,[2],19.9 ± 6.3%
COCC[n+]1c2c(n(Cc3cnccn3)c1C)C(=O)c1ccccc1C2=O [YM155 (Sepantronium Bromide)],percent Bodipy-positive cells,[3],59.8 ± 15%
same,percent Bodipy-positive cells,[1],97.82 ± 0.58%
O=C(NCCO)c1cccc(-c2cc(Nc3ccc(OC(F)(F)F)cc3)ncn2)c1,percent Bodipy-positive cells,[3],34.6 ± 9.2%
same,percent Bodipy-positive cells,[1],85.4 ± 3.1%
COCCCCCCCCCCCC(=O)O [12-Methoxydodecanoic acid],percent Bodipy-positive cells,[2],11.9 ± 12%
FC(F)(F)c1ccc(/C=C\c2cc(Cl)cc(Cl)c2)cc1,percent Bodipy-positive cells,[2],10 ± 5.3%
Nc1ncnc2c1c(-c1ccc(Oc3ccccc3)cc1)cn2C1CCCC1,percent Bodipy-positive cells,[1],48.1 ± 14%
CCN(CC)CCc1nc(-c2ccccc2)no1,percent Bodipy-positive cells,[1],30.6 ± 8.1%
CCN(CC)CCc1nc(-c2ccccc2)no1 [Oxalamine citrate salt],percent Bodipy-positive cells,,10.2 ± 1.2%
"CC(C)NCC(O)c1ccc(O)c(O)c1 (single isomer, unassigned; (+)) [(+)-Isoproterenol (+)-bitartrate salt]",percent Bodipy-positive cells,,8.51 ± 3%
COc1ccc([C@]2(C#N)CC[C@@H](C(=O)O)CC2)cc1OC1CCCC1 [Cilomilast],percent Bodipy-positive cells,[3],7.64 ± 3%
same,percent Bodipy-positive cells,[1],14.9 ± 1.6%
CCOc1c2c(c(OCC)c3ccccc13)C(=O)N(c1ccc(CC(=O)NS(=O)(=O)c3ccccc3)cc1)C2,percent Bodipy-positive cells,[2],12.1 ± 3.6%
CNCC(O)c1ccc(OC(=O)C(C)(C)C)c(OC(=O)C(C)(C)C)c1 (stereo not drawn) [Dipivefrin hydrochloride],percent Bodipy-positive cells,,26.8 ± 5.2%
CC(C)S(=O)(=O)Nc1ccc(F)c(C(=O)c2c[nH]c3ncc(-c4cccnc4)cc23)c1F,percent Bodipy-positive cells,[4],12.3 ± 0.9%
same,percent Bodipy-positive cells,[5],13.1 ± 6%
same,percent Bodipy-positive cells,[6],10.9 ± 4.6%
same,percent Bodipy-positive cells,[1],15.9 ± 1%
"CC(=O)NC1[C@@H](O)OC(CO)[C@@H](O)[C@H]1O[C@H](C)C(=O)O (stereo in doubt) [Muramic acid, N-acetyl]",percent Bodipy-positive cells,,29.8 ± 2.2%
O=S(=O)(O)NC1CCCCC1,percent Bodipy-positive cells,[1],23.2 ± 3.9%
O=S(=O)(O)NC1CCCCC1 [Cyclamic  acid],percent Bodipy-positive cells,[3],14 ± 9.4%
same,percent Bodipy-positive cells,[1],20.2 ± 4.4%
CC[C@]12CCCN3CCc4c(n(c5ccccc45)[C@](O)(C(=O)OC)C1)[C@@H]32 [Epivincamine],percent Bodipy-positive cells,,20.2 ± 0.44%
CC(C)NC[C@@H](O)COc1cccc2ccccc12 [(R)-(+)-Propranolol hydrochloride],percent Bodipy-positive cells,[1],46.2 ± 4.8%
CC(C)NC[C@@H](O)COc1cccc2ccccc12 [Dexpropranolol hydrochloride],percent Bodipy-positive cells,library stock concentration: 6.8 mM,61.5 ± 5.9%
same,percent Bodipy-positive cells,[1],21.6 ± 4.4%
CC(C)NC[C@@H](O)COc1cccc2ccccc12 [(R)-Propranolol hydrochloride],percent Bodipy-positive cells,,43.04 ± 0.43%
OC1(c2ccc(Cl)cc2)CCN(Cc2c[nH]c3ccccc23)CC1,percent Bodipy-positive cells,[1],99.81 ± 0.27%
CCc1cn([C@H]2C[C@H](O)[C@@H](CO)O2)c(=O)[nH]c1=O [Edoxudine],percent Bodipy-positive cells,library stock concentration: 7.8 mM,24.1 ± 12%
same,percent Bodipy-positive cells,[1],60.6 ± 3.4%
O=C(NCc1cccc(O)c1)Nc1nc(-c2ccncc2)cs1,percent Bodipy-positive cells,[1],100%
CCCCC/C=C\C[C@@H](O)/C=C/C=C/C=C\[C@@H](O)CCCC(=O)O [Leukotriene B4],percent Bodipy-positive cells,library stock concentration: 100 uM,16.5 ± 15%
COc1cc2c(cc1C(F)(F)F)N(C(=O)Nc1cc(F)cc(-c3cccnc3)c1)CC2,percent Bodipy-positive cells,[1],99.3 ± 1%
COC(=O)C1=CC[C@@]23CC[C@@H]([C@@](C)(/C=C/C=C(\C)C(=O)O)OC2=O)[C@@]3(OC(C)=O)CC1 [Pseudolaric Acid B],percent Bodipy-positive cells,[2],17.9 ± 4.3%
O=c1[nH]c(=O)n(C2CCCO2)cc1F (stereo not drawn),percent Bodipy-positive cells,[3],7.79 ± 1.7%
same,percent Bodipy-positive cells,[1],7.44% and 9.57%
O=c1[nH]c(=O)n(C2CCCO2)cc1F (stereo not drawn) [Ftorafur],percent Bodipy-positive cells,[1],7.58 ± 2.3%
Cc1cc2c(F)c(Oc3ncnn4cc(OC[C@@H](C)OC(=O)[C@H](C)N)c(C)c34)ccc2[nH]1,percent Bodipy-positive cells,[3],9.92 ± 2.7%
same,percent Bodipy-positive cells,[1],35.9 ± 3.3%
CC(NCCC(c1ccccc1)c1ccccc1)c1ccccc1 (stereo not drawn) [Fendiline hydrochloride],percent Bodipy-positive cells,,98.2 ± 2.5%
same,percent Bodipy-positive cells,[1],78.8 ± 3.6%
C[C@@H]1COCCN1c1cc(C2(S(C)(=O)=O)CC2)nc(-c2cccc3[nH]ccc23)n1,percent Bodipy-positive cells,[4],7 ± 2.8%
same,percent Bodipy-positive cells,[5],17.8 ± 9.8%
same,percent Bodipy-positive cells,[6],3.96 ± 0.99%
same,percent Bodipy-positive cells,[1],7.32 ± 1.9%
CCOC(=O)Nc1cc(-c2ccc(C)c(NS(C)(=O)=O)c2)nn2c(C)nnc12 [Bromosporine],percent Bodipy-positive cells,[3],47.5 ± 3.3%
same,percent Bodipy-positive cells,[1],77.5 ± 4.9%
"CCC(CO)Nc1nc(NCc2ccccc2)c2ncn(C(C)C)c2n1 [Roscovitine, (S)-Isomer]",percent Bodipy-positive cells,[3],17.5 ± 0.43%
CCCCCCCCCCCCC(O)C(=O)O (stereo not drawn) [2-Hydroxymyristic acid],percent Bodipy-positive cells,[2],5.44 ± 3.3%
CCCCCCCCCCCCC(O)C(=O)O (stereo not drawn) [2-Hydroxymyristic Acid],percent Bodipy-positive cells,[2],9.46 ± 1.8%
